Results: the supplement of paper PMC12823440, “Inhibitors supercharge kinase turnover through native proteolytic circuits” (Nature, 2025)
The other results are listed elsewhere or left out. Hit calls seldom repeat between salt and free forms of one compound.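 In K562 cells expressing nanoluciferase-fused kinases, luminescence was recorded at 4 h intervals between 2 and 18 h, normalized as percent of control with DMSO at 100% and a positive control at 0%. A significant (2 sigma) signal drop marks a time point as decreased. The authors' rule for a hit is not shown and takes in more than the number of time points.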

Sequences of proteins named here, by UniProt entry; tags and fusion partners are left off. A change or cut given only in a name is not applied to a line headed by its entry.
UniProt Q13131: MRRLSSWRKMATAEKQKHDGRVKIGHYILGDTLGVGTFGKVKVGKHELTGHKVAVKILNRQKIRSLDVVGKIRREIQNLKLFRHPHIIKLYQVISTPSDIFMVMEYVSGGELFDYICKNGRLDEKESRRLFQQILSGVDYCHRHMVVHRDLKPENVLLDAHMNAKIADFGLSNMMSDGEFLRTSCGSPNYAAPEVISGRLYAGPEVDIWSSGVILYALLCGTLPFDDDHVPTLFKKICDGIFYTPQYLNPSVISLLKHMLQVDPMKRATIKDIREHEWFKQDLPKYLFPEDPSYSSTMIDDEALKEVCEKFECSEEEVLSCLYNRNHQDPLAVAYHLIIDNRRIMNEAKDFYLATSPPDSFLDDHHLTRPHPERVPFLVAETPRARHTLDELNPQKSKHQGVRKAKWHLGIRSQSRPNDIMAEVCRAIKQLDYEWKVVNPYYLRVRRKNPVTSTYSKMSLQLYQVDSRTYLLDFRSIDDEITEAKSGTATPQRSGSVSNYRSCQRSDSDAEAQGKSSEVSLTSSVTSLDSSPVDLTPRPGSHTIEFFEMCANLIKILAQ
UniProt Q05397, whole entry, looked up: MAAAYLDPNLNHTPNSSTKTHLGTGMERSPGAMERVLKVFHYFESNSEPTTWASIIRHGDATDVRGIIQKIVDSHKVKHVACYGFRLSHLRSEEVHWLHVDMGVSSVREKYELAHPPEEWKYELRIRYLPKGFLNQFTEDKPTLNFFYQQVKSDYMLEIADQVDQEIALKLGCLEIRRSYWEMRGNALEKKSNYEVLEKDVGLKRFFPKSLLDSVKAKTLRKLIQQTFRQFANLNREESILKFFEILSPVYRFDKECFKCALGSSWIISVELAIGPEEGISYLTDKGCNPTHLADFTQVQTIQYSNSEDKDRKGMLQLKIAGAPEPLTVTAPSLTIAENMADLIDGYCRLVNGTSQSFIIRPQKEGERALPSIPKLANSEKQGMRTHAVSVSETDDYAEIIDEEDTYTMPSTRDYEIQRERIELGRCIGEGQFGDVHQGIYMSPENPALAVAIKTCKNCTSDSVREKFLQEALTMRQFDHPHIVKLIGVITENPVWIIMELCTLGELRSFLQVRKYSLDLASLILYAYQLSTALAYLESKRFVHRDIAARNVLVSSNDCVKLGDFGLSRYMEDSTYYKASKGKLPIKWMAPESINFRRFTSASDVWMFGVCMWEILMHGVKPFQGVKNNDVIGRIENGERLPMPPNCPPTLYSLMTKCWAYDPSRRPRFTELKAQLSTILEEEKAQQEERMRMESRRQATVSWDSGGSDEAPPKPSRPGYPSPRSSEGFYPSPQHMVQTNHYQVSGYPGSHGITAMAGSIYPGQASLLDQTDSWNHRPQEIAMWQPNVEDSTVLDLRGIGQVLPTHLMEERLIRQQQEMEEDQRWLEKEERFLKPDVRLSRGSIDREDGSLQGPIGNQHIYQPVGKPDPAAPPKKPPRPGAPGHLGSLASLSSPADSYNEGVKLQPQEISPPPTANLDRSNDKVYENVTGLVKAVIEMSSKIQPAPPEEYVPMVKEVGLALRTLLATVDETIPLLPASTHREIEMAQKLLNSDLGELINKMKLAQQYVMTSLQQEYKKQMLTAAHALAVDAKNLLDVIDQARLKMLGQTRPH
UniProt Q14289, whole entry, looked up: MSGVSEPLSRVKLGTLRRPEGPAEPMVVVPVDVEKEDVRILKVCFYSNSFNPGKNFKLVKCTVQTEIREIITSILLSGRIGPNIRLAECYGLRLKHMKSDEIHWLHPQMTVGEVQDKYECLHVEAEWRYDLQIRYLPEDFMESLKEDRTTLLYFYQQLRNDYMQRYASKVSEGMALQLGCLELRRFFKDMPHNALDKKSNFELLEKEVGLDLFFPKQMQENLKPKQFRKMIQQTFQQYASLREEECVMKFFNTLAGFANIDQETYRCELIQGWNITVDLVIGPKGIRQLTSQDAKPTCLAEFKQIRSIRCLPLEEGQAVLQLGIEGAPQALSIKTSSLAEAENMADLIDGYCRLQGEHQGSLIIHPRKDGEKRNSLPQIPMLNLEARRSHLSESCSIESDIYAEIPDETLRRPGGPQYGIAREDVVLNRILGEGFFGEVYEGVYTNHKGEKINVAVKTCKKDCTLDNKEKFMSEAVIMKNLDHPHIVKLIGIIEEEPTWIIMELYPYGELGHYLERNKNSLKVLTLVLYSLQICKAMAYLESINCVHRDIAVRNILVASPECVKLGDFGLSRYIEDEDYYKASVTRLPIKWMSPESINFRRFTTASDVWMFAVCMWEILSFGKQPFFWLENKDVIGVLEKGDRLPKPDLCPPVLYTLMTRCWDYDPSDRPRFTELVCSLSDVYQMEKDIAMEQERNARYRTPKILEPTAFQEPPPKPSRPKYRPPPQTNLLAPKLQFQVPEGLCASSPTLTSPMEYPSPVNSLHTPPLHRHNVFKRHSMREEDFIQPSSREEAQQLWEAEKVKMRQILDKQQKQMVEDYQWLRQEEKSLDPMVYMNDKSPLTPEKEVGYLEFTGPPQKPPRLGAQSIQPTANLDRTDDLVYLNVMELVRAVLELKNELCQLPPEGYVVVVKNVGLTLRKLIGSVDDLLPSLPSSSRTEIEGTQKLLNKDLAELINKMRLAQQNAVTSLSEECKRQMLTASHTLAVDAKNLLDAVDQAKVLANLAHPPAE
UniProt P07949, whole entry, looked up: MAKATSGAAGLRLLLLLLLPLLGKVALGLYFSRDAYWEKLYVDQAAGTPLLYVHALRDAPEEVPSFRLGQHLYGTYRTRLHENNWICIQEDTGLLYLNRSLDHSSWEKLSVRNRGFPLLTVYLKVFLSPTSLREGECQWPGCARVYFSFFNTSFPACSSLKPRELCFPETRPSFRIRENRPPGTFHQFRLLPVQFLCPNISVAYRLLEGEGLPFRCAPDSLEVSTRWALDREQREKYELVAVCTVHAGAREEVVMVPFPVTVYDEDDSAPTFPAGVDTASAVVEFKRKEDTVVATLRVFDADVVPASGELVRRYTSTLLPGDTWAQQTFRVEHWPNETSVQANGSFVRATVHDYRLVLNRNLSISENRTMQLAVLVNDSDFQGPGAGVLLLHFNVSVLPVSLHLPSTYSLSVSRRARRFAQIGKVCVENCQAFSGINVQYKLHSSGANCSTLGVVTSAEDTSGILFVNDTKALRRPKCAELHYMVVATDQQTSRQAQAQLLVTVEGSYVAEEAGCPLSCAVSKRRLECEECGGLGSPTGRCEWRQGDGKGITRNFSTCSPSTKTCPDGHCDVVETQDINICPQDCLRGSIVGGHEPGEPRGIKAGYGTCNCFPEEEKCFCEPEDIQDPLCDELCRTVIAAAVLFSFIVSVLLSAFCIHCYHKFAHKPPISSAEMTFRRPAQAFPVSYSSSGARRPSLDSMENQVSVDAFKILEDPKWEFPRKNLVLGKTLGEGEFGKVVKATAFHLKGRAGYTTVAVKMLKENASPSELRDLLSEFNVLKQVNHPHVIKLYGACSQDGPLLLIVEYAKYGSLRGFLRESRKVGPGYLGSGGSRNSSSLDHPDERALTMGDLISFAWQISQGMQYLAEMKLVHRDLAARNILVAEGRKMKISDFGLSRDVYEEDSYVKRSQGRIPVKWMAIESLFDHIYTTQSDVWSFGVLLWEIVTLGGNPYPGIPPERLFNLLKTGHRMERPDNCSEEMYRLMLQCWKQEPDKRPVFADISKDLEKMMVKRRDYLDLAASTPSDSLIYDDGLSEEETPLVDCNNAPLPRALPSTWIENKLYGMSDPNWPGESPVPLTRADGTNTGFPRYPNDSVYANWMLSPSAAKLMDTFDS
UniProt P07949, whole entry M918T, looked up: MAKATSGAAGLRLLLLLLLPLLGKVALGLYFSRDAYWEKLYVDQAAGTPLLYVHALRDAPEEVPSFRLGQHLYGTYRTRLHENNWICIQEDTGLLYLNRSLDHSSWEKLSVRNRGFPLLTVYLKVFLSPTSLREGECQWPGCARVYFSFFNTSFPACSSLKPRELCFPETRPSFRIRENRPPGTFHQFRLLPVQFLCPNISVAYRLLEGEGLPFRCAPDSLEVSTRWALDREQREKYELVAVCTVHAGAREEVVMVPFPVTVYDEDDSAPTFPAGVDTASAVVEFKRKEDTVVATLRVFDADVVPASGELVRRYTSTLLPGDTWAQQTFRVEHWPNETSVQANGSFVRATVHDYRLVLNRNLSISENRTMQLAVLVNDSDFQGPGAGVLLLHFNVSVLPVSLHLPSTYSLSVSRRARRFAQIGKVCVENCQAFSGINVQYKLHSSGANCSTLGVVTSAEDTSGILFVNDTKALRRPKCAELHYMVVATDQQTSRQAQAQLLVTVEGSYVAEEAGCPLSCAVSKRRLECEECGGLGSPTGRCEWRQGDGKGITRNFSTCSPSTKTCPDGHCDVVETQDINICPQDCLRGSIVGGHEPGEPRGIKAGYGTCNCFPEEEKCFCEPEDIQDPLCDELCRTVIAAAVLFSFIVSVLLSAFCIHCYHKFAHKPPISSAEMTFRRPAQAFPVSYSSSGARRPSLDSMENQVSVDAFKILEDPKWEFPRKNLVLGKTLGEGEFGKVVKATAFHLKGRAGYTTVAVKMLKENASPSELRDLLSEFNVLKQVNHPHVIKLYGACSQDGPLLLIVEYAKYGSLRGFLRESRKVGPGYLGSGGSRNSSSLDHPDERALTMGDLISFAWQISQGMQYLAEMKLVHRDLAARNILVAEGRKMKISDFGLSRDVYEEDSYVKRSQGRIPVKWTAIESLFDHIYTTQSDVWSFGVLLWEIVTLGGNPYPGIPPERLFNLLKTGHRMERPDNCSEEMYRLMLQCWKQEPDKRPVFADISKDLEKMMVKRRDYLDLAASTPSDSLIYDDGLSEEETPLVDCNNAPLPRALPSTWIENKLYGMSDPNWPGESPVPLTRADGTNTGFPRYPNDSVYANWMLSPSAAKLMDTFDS
UniProt Q9NYA1, whole entry: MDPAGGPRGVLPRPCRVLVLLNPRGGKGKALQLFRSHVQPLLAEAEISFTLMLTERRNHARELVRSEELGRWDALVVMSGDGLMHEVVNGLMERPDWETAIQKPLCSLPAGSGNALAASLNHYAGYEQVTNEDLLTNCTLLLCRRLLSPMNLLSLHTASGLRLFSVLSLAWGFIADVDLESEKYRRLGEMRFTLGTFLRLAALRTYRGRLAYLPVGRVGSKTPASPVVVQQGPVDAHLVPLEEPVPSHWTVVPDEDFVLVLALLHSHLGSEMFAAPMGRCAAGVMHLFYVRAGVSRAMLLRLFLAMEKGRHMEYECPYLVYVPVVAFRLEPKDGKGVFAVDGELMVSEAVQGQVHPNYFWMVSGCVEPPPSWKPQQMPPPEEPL
UniProt Q9Y6E0: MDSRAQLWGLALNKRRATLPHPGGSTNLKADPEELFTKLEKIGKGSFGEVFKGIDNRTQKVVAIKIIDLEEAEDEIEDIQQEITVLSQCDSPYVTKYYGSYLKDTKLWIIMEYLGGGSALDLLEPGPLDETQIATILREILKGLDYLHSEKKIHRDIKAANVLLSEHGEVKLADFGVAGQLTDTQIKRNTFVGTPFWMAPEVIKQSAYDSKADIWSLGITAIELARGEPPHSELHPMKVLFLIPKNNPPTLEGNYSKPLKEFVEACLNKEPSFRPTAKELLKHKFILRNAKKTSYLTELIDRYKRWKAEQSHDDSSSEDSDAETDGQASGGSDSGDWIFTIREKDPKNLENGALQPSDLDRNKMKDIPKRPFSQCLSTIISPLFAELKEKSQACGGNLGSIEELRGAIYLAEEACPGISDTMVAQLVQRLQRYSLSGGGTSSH

Tests used:
Test in all cases: kinase-Nluc reporter destabilization hit call (1 = scored as downregulated) (binary); higher = compound decreases kinase abundance
Conditions in all cases: K562; 2-18 h
PDPK1 = PDPK1 (UniProt O15530)
PIK4CA = PIK4CA (UniProt P42356)
PIK4CB = PIK4CB (UniProt Q9UBF8)
PLK1 = PLK1 (UniProt P53350)
PRKAA1 = PRKAA1 (UniProt Q13131)
PRKCA = PRKCA (UniProt P17252)
PTK2 = PTK2 (UniProt Q05397)
PTK2B = PTK2B (UniProt Q14289)
RAF1 = RAF1 (UniProt P04049)
[1] = molecular target: RAF1_S257L (clone: RAF1_mut) (UniProt P04049)
RET = RET (UniProt P07949)
[2] = molecular target: RET_M918T (clone: RET_mut) (UniProt P07949)
RIOK1 = RIOK1 (UniProt Q9BRS2)
RIPK1 = RIPK1 (UniProt Q13546)
RIPK2 = RIPK2 (UniProt O43353)
ROR2 = ROR2 (UniProt Q01974)
RPS6KA1 = RPS6KA1 (UniProt Q15418)
SPHK1 = SPHK1 (UniProt Q9NYA1)
SRC = SRC (UniProt P12931)
STK24 = STK24 (UniProt Q9Y6E0)

Measured: kinase-Nluc reporter destabilization hit call

CCS(=O)(=O)c1ncc(Cl)c(C(=O)N(Cc2ccc(Cl)cc2)Cc2ccco2)n1 (2.5 µM)
inactive: PDPK1 = 0 | PIK4CA 0 | PIK4CB 0 | PLK1 = 0 | PRKAA1 = 0 | PRKCA 0 | PTK2 = 0 | PTK2B 0 | RAF1 = 0 | [1] 0 | RET 0 | [2] 0 | RIOK1 = 0 | RIPK1 = 0 | RIPK2 = 0 | ROR2 = 0 | RPS6KA1 = 0 | SPHK1 = 0 | SRC 0 | STK24 = 0

C=CC(=O)Nc1ccc(CN2C(=O)N(c3cc(OC)cc(OC)c3)Cc3cnc(Nc4ccc(N5CCN(C)CC5)cc4)nc32)cc1 (2.5 µM)
inactive: PDPK1 = 0 | PIK4CA 0 | PIK4CB 0 | PLK1 = 0 | PRKAA1 = 0 | PRKCA 0 | PTK2 = 0 | PTK2B 0 | RAF1 = 0 | [1] 0 | RET 0 | [2] 0 | RIOK1 = 0 | RIPK1 = 0 | RIPK2 = 0 | ROR2 = 0 | RPS6KA1 = 0 | SPHK1 = 0 | SRC 0 | STK24 = 0

O=C(NOCC(O)CO)c1cc(Br)c(F)c(F)c1Nc1ccc(I)cc1F (stereo not given) (2.5 µM)
inactive: PDPK1 = 0 | PIK4CA 0 | PIK4CB 0 | PLK1 = 0 | PRKAA1 = 0 | PRKCA 0 | PTK2 = 0 | PTK2B 0 | RAF1 = 0 | [1] 0 | RET 0 | [2] 0 | RIOK1 = 0 | RIPK1 = 0 | RIPK2 = 0 | ROR2 = 0 | RPS6KA1 = 0 | SPHK1 = 0 | SRC 0 | STK24 = 0

CN1CCN(c2cnc3c(C4CCN(C(=O)c5ccc(OC(F)(F)F)cc5N)CC4)ncnc3c2)CC1 (10 µM)
inactive: PDPK1 = 0 | PIK4CA 0 | PIK4CB 0 | PLK1 = 0 | PRKAA1 = 0 | PRKCA 0 | PTK2 = 0 | PTK2B 0 | RAF1 = 0 | [1] 0 | RET 0 | [2] 0 | RIOK1 = 0 | RIPK1 = 0 | RIPK2 = 0 | ROR2 = 0 | RPS6KA1 = 0 | SPHK1 = 0 | SRC 0 | STK24 = 0

Quoted at random: 2 entries already listed, in no set order.
O=C(NOCC(O)CO)c1cc(Br)c(F)c(F)c1Nc1ccc(I)cc1F (stereo not given) (2.5 µM)
inactive: PDPK1 = 0 | PIK4CA 0 | PIK4CB 0 | PLK1 = 0 | PRKAA1 = 0 | PRKCA 0 | PTK2 = 0 | PTK2B 0 | RAF1 = 0 | [1] 0 | RET 0 | [2] 0 | RIOK1 = 0 | RIPK1 = 0 | RIPK2 = 0 | ROR2 = 0 | RPS6KA1 = 0 | SPHK1 = 0 | SRC 0 | STK24 = 0

CN1CCN(c2cnc3c(C4CCN(C(=O)c5ccc(OC(F)(F)F)cc5N)CC4)ncnc3c2)CC1 (10 µM)
inactive: PDPK1 = 0 | PIK4CA 0 | PIK4CB 0 | PLK1 = 0 | PRKAA1 = 0 | PRKCA 0 | PTK2 = 0 | PTK2B 0 | RAF1 = 0 | [1] 0 | RET 0 | [2] 0 | RIOK1 = 0 | RIPK1 = 0 | RIPK2 = 0 | ROR2 = 0 | RPS6KA1 = 0 | SPHK1 = 0 | SRC 0 | STK24 = 0

Further entries.

CCCS(=O)(=O)Nc1ccc(F)c(C(=O)c2c[nH]c3ncc(-c4ccc(Cl)cc4)cc23)c1F [Vemurafenib] (10 µM)
inactive: PDPK1 = 0 | PIK4CA 0 | PIK4CB 0 | PLK1 = 0 | PRKAA1 = 0 | PRKCA 0 | PTK2 = 0 | PTK2B 0 | RAF1 = 0 | [1] 0 | RET 0 | [2] 0 | RIOK1 = 0 | RIPK1 = 0 | RIPK2 = 0 | ROR2 = 0 | RPS6KA1 = 0 | SPHK1 = 0 | SRC 0 | STK24 = 0

NC(=O)c1nnc(N[C@@H]2CCCC[C@@H]2N)nc1Nc1cccc2cc[nH]c12 (10 µM)
inactive: PDPK1 = 0 | PIK4CA 0 | PIK4CB 0 | PLK1 = 0 | PRKAA1 = 0 | PRKCA 0 | PTK2 = 0 | PTK2B 0 | RAF1 = 0 | [1] 0 | RET 0 | [2] 0 | RIOK1 = 0 | RIPK1 = 0 | RIPK2 = 0 | ROR2 = 0 | RPS6KA1 = 0 | SPHK1 = 0 | SRC 0 | STK24 = 0

O=c1cc(CN2CCOCC2)occ1OCCCCCSc1ccnc2cc(C(F)(F)F)ccc12 (10 µM)
inactive: PDPK1 = 0 | PIK4CA 0 | PIK4CB 0 | PLK1 = 0 | PRKAA1 = 0 | PRKCA 0 | PTK2 = 0 | PTK2B 0 | RAF1 = 0 | [1] 0 | RET 0 | [2] 0 | RIOK1 = 0 | RIPK1 = 0 | RIPK2 = 0 | ROR2 = 0 | RPS6KA1 = 0 | SPHK1 = 0 | SRC 0 | STK24 = 0

NS(=O)(=O)c1ccc(-n2nc(C(F)(F)F)cc2-c2ccc(Cl)cc2)cc1 (10 µM)
inactive: PDPK1 = 0 | PIK4CA 0 | PIK4CB 0 | PLK1 = 0 | PRKAA1 = 0 | PRKCA 0 | PTK2 = 0 | PTK2B 0 | RAF1 = 0 | [1] 0 | RET 0 | [2] 0 | RIOK1 = 0 | RIPK1 = 0 | RIPK2 = 0 | ROR2 = 0 | RPS6KA1 = 0 | SPHK1 = 0 | SRC 0 | STK24 = 0

O=C([O-])c1cc2ccccc2c(Cc2c(O)c(C(=O)[O-])cc3ccccc23)c1O.[Na+].[Na+] [Pamoic acid (disodium)] (10 µM)
inactive: PDPK1 = 0 | PIK4CA 0 | PIK4CB 0 | PLK1 = 0 | PRKAA1 = 0 | PRKCA 0 | PTK2 = 0 | PTK2B 0 | RAF1 = 0 | [1] 0 | RET 0 | [2] 0 | RIOK1 = 0 | RIPK1 = 0 | RIPK2 = 0 | ROR2 = 0 | RPS6KA1 = 0 | SPHK1 = 0 | SRC 0 | STK24 = 0

CC(C)(O)CNc1ncc(-c2ccnc(Nc3ccnc(Cl)c3)n2)c(CC2CC2)n1 (2.5 µM)
inactive: PDPK1 = 0 | PIK4CA 0 | PIK4CB 0 | PLK1 = 0 | PRKAA1 = 0 | PRKCA 0 | PTK2 = 0 | PTK2B 0 | RAF1 = 0 | [1] 0 | RET 0 | [2] 0 | RIOK1 = 0 | RIPK1 = 0 | RIPK2 = 0 | ROR2 = 0 | RPS6KA1 = 0 | SPHK1 = 0 | SRC 0 | STK24 = 0

Cn1cnc(Cn2ccc3ccc(CNCc4[nH]c5ccccc5c4[C@H]4NC(=O)c5ccc(O)cc54)cc32)c1 (10 µM)
inactive: PDPK1 = 0 | PIK4CA 0 | PIK4CB 0 | PLK1 = 0 | PRKAA1 = 0 | PRKCA 0 | PTK2 = 0 | PTK2B 0 | RAF1 = 0 | [1] 0 | RET 0 | [2] 0 | RIOK1 = 0 | RIPK1 = 0 | RIPK2 = 0 | ROR2 = 0 | RPS6KA1 = 0 | SPHK1 = 0 | SRC 0 | STK24 = 0

O=Nc1c(-c2c(O)[nH]c3ccc(I)cc23)[nH]c2ccccc12 [5-Iodo-indirubin-3'-monoxime] (10 µM)
inactive: PDPK1 = 0 | PIK4CA 0 | PIK4CB 0 | PLK1 = 0 | PRKAA1 = 0 | PRKCA 0 | PTK2 = 0 | PTK2B 0 | RAF1 = 0 | [1] 0 | RET 0 | [2] 0 | RIOK1 = 0 | RIPK1 = 0 | RIPK2 = 0 | ROR2 = 0 | RPS6KA1 = 0 | SPHK1 = 0 | SRC 0 | STK24 = 0

NC(=O)c1ccc2[nH]ccc2c1 (10 µM)
inactive: PDPK1 = 0 | PIK4CA 0 | PIK4CB 0 | PLK1 = 0 | PRKAA1 = 0 | PRKCA 0 | PTK2 = 0 | PTK2B 0 | RAF1 = 0 | [1] 0 | RET 0 | [2] 0 | RIOK1 = 0 | RIPK1 = 0 | RIPK2 = 0 | ROR2 = 0 | RPS6KA1 = 0 | SPHK1 = 0 | SRC 0 | STK24 = 0

Cn1cnc2c(F)c(Nc3ccc(Br)cc3Cl)c(C(=O)NOCCO)cc21 [Selumetinib (sulfate)] (10 µM)
inactive: PDPK1 = 0 | PIK4CA 0 | PIK4CB 0 | PLK1 = 0 | PRKAA1 = 0 | PRKCA 0 | PTK2 = 0 | PTK2B 0 | RAF1 = 0 | [1] 0 | RET 0 | [2] 0 | RIOK1 = 0 | RIPK1 = 0 | RIPK2 = 0 | ROR2 = 0 | RPS6KA1 = 0 | SPHK1 = 0 | SRC 0 | STK24 = 0

CCCCCCCCCCCCC/C=C/[C@@H](O)[C@@H](N)CO [D-erythro-Sphingosine] (2.5 µM)
inactive: PDPK1 = 0 | PIK4CA 0 | PIK4CB 0 | PLK1 = 0 | PRKAA1 = 0 | PRKCA 0 | PTK2 = 0 | PTK2B 0 | RAF1 = 0 | [1] 0 | RET 0 | [2] 0 | RIOK1 = 0 | RIPK1 = 0 | RIPK2 = 0 | ROR2 = 0 | RPS6KA1 = 0 | SPHK1 = 0 | SRC 0 | STK24 = 0

OCCn1cc(-c2ccc3c(c2)CC/C3=N\O)c(-c2ccncc2)n1 (10 µM)
inactive: PDPK1 = 0 | PIK4CA 0 | PIK4CB 0 | PLK1 = 0 | PRKAA1 = 0 | PRKCA 0 | PTK2 = 0 | PTK2B 0 | RAF1 = 0 | [1] 0 | RET 0 | [2] 0 | RIOK1 = 0 | RIPK1 = 0 | RIPK2 = 0 | ROR2 = 0 | RPS6KA1 = 0 | SPHK1 = 0 | SRC 0 | STK24 = 0

C[C@@H](c1ccc(F)cc1)n1nnc2cnc3ccc(-c4ccc5ocnc5c4)cc3c21 (10 µM)
inactive: PDPK1 = 0 | PIK4CA 0 | PIK4CB 0 | PLK1 = 0 | PRKAA1 = 0 | PRKCA 0 | PTK2 = 0 | PTK2B 0 | RAF1 = 0 | [1] 0 | RET 0 | [2] 0 | RIOK1 = 0 | RIPK1 = 0 | RIPK2 = 0 | ROR2 = 0 | RPS6KA1 = 0 | SPHK1 = 0 | SRC 0 | STK24 = 0

Nc1nc2ccc(Cl)cc2c2nc(-c3ccco3)nn12 (10 µM)
inactive: PDPK1 = 0 | PIK4CA 0 | PIK4CB 0 | PLK1 = 0 | PRKAA1 = 0 | PRKCA 0 | PTK2 = 0 | PTK2B 0 | RAF1 = 0 | [1] 0 | RET 0 | [2] 0 | RIOK1 = 0 | RIPK1 = 0 | RIPK2 = 0 | ROR2 = 0 | RPS6KA1 = 0 | SPHK1 = 0 | SRC 0 | STK24 = 0
